Measurements published in paper PMC5325327.
These are yes or no findings as the source states them, for the method shown. Binding seen in cells or lysates may run through a third protein. These calls come from enrichment with a bait or labelling near it, and not all partners need be listed. Sequences can lack the tags named with a protein.

Biological target: T1, Spo0M-FLAG (B. subtilis) (UniProt P71088)
T1 sequence: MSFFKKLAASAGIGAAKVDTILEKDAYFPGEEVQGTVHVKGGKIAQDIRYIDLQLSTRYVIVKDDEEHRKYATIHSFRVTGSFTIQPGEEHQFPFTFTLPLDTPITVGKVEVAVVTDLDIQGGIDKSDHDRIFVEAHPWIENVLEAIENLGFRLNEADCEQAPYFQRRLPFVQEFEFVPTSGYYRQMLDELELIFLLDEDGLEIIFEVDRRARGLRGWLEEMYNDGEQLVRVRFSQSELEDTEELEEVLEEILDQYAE
Assay: affinity purification with mass spectrometry; E. coli BL21-DE3 extract with Spo0M-FLAG mixed with B. subtilis Bs1A1 total protein extract 2 h at 4°C, then anti-FLAG agarose beads 2 h at 4°C; lysis buffer 50 mM HEPES pH 7.4, 2.5 mM EDTA, 150 mM NaCl, 10% glycerol, 1% NP40; bands differing from the empty-vector control cut from the SDS-PAGE gel for mass spectrometry; three biological replicates

binding, binds:
Clp-P (from UniProt P80244 1-197) (enzyme)
GroEL (from UniProt P28598 1-544)
FtsH metalloprotease (from UniProt P37476 1-637) (enzyme)
